Assay results reported in patent US5859333A, “Plants and processes for obtaining them” (Zeneca Limited, priority 1992, dated 1999).
For at least one compound, name, drawing or mass did not settle the structure.

Target: T1, Rabbit muscle SGP (Oryctolagus cuniculus, UniProt P13280)
T1 construct: from tissue; host or cells: rabbit muscle
T1 sequence (P13280 1-333): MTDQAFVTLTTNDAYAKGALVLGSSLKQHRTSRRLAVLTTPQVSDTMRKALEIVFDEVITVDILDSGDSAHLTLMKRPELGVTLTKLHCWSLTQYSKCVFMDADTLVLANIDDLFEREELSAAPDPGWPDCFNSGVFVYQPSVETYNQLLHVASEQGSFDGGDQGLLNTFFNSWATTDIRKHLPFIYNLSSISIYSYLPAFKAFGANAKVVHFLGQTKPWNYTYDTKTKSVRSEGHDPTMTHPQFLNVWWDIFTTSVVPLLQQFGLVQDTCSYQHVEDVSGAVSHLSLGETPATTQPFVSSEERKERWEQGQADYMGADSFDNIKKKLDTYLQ
Assay: Self-glucosylation activity of rabbit muscle SGP (glycogenin)
Type: biochemical
Conditions: result in words; act as alternative substrates

O=[N+]([O-])c1ccc(OC2O[C@H](CO)[C@@H](O)[C@H](O)[C@H]2O)cc1 (stereo partly shown) [p-nitrophenylglucose]
inhibition of the self-glucosylating protein in rabbit muscle: inhibited
